Assay results: patent US20060172992A1, “Therapeutic agent for overactive bladder resulting from cerebral infarction” (EISAI CO., LTD., priority 2004, published 2006)

System: cerebral infarction rats
Settings: brains removed 6 hours after cerebral infarction

In the case of `COc1cc2c(cc1OC)C(=O)C(CC1CCN(Cc3ccccc3)CC1)C2.Cl` (stereo not shown) [donepezil hydrochloride, 1-benzyl-4-[(5,6-dimethoxy-1-indanone)-2-yl]methylpiperidine hydrochloride], the “percentage of volume of cerebral infarct to that of the entire brain, CI+D versus CI+Ve” value is reported as “No significant difference”.
